The source of these data is PubChem BioAssay AID488840 (Broad Institute, 2010).

Chains of the proteins cited; added tags and fusions are not shown. Lines headed by an entry give the natural chain unless they say otherwise; changes in a name come on top.
UniProt O75164: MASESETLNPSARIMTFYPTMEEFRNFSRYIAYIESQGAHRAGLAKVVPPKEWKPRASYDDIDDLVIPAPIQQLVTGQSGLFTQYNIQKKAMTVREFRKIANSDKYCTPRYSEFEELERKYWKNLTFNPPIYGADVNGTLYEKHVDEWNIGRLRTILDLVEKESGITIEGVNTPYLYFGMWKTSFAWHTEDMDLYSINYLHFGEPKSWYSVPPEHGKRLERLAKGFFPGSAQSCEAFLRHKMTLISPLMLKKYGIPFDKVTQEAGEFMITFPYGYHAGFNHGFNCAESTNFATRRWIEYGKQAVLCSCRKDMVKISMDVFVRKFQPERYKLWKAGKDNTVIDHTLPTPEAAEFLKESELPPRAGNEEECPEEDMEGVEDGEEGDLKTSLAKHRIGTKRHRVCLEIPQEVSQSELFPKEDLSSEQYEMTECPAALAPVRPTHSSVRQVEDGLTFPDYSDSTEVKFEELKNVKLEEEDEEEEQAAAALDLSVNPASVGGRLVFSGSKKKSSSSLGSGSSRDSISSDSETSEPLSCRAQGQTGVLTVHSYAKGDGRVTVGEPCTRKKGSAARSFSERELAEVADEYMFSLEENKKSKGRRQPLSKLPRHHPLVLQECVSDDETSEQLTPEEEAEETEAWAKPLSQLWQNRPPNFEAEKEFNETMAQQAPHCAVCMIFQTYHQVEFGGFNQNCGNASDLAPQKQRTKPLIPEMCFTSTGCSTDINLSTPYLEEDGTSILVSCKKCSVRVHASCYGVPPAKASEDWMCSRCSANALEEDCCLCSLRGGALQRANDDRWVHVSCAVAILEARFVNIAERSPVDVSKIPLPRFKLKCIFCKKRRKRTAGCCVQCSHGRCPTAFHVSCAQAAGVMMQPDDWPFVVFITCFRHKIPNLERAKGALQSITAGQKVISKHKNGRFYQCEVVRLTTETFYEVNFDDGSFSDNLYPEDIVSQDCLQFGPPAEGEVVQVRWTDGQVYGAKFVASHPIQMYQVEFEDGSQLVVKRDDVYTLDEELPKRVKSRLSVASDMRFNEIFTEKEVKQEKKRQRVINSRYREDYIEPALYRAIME

Structures are written as SMILES. Screen size: about 1,400 compounds; about 45 (3%) were called active.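 How the source made its calls: active means half-maximal dose of signal decrease from fit no higher than ten times the top valid tested dose; inconclusive means fit invalid, or curve flat with 30 to 70% inhibition; inactive means the rest.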 Some of the results follow. Results with a measured potency or affinity are listed apart.

The target of this assay is Lysine-specific demethylase 4A (Homo sapiens) (UniProt O75164). Kind of assay: inhibition of JMJD2A H3K9me3 demethylation – biochemical, DELFIA europium, cherry-picked samples, selectivity assay for GASC-1 inhibitor project, dose response (AID 488840).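 Further: europium signal reports the dimethyl H3K9 product detected by antibody so inhibitors lower it; 0% = median of neutral control wells and -100% = median of positive control wells.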 Conditions: GST-JMJD2A(1-420) H3K9me3 demethylation; at 6 µM (top of the series) unless noted.
`CCCCOc1ccc(C(=O)Nc2ccc(N3CCN(C(C)=O)CC3)cc2)cc1`: the activity change, negative = inhibition is inactive: -0.903%.
As for `CS(=O)(=O)N(CC(=O)O)c1cc(Cl)cc(Cl)c1`, the activity change, negative = inhibition is inactive: 6.16%.
With `CC(C)CNC(=O)c1ccc(NC(=O)c2cccs2)cc1`, the activity change, negative = inhibition was inactive: 3.68%.
In the case of `CCc1ccc(-c2nnn(Cc3nn[nH]n3)n2)cc1`, the activity change, negative = inhibition is inactive: 1.7%.
Regarding `CCN1C(=O)C(C(=O)Nc2ccc(OC)cc2)C2CC1(C)Oc1ccccc12` (centres undefined), the activity change, negative = inhibition was inactive: 9.69%.
For the compound `Cc1cc(OC(=O)c2c(C)cc(OC(=O)c3c(C)cc(O)cc3O)cc2O)cc(O)c1C(=O)O`, the activity change, negative = inhibition was inactive: 1.19%.
Next, `COc1ccc(-c2nnc(SC(C)C(=O)NCc3ccc4c(c3)OCO4)n2Cc2ccco2)cc1` (centres undefined): inactive: 5.3%; `CCOc1ccc(-c2c(C#N)c(N)nc3c2c(=O)n(C)c(=O)n3C)cc1OC`: inactive: -3.69%; `O=c1oc(C2(O)CCCCC2)cc2ccccc12`: inactive: 1.88%.
Take `CC(C)CCn1c(NCCN(C)C)nc2c1c(=O)[nH]c(=O)n2C`: the activity change, negative = inhibition was inactive: 0.247%.
Consider `CCOC(=O)N1CCC(c2nc3ccccc3[nH]2)CC1`, for which the activity change, negative = inhibition is inactive: 3.28%.
Then `N#CC(=C1CCCC1)c1nc(-c2ccccc2)cs1`, with inactive: -0.243%; and `CCN1CCC(=NNC(=O)c2ccc(C)c([N+](=O)[O-])c2)CC1`, with inactive: 0.261%.
With `CCOc1cc(CN2CCN(CCc3ccccc3)C(CCO)C2)ccc1OC` (centres undefined), the activity change, negative = inhibition is inactive: -1.93%.
Then `Cc1ccc(C2CC(c3ccccc3)=NN2C(=S)Nc2ccccc2)o1` (centres undefined), with inactive: 3.02%.
For `O=C(CSc1nnnn1-c1ccc(Cl)cc1)N1CCc2ccccc2C1`, the activity change, negative = inhibition is inactive: -8.69%.
In the case of `COc1ccc(CN2CCCCC2C)c(C)c1C` (centres undefined), the activity change, negative = inhibition was inactive: 2.39%.
Then `COc1ccc(/C=N/Nc2cc(=O)n(C)c(=O)n2C)cc1OC`, with inactive: -8.8%.
Turning to `Cc1cccc2sc(NNC(=O)c3cc(=O)c4ccccc4o3)nc12`, the activity change, negative = inhibition was inactive: 7.99%.
Then `Cc1cccc(Oc2nc(CN3CCOCC3)nc3sc4c(c23)CCCC4)c1`, with inactive: 0.732%; and `Cn1c(=O)[nH]c(=O)c2[nH]c(NCCCN3CCOCC3)nc21`, with inactive: 6.62%; and `CC(=O)N1CCN(c2ccc([N+](=O)[O-])c(-n3nc(C)cc3C)c2)CC1`, with inactive: 3.27%.
Turning to `O=C(C[C@H]1C/C=C/CC[C@@H](Cc2ccc(F)cc2)C(=O)O[C@@H](c2ccccc2)CNC1=O)NCCO`, the activity change, negative = inhibition is inactive: -0.705%.
For `C[C@H](CO)N1C[C@H](C)[C@@H](CN(C)S(=O)(=O)c2ccc(F)cc2)Oc2ccc(NS(=O)(=O)c3cccs3)cc2C1=O`, the activity change, negative = inhibition was inactive: -0.896%.
Then `O=C(COC(=O)C1(c2ccc(Cl)cc2)CCCC1)NC1CCS(=O)(=O)C1` (centres undefined), with inactive: 4.75%; and `CC(=O)NS(=O)(=O)c1ccc(NC(=O)CSc2ccc(Cl)cc2)cc1`, with inactive: -1.91%.
As for `NCCN1CCN2C(=O)CN(C(=O)c3ccccc3)CC12` (centres undefined), the activity change, negative = inhibition was inactive: -4.22%.
Next, `CN(C)c1cccc(C(=O)Nc2cc(C(F)(F)F)ccc2-n2cnc3ccccc32)c1`: inactive: -3.21%; `CC1CN(C)C(C)CC1NCc1ccc2c(c1)OCO2` (centres undefined): inactive: -0.442%.
Then `N=c1n(CCCOc2ccccc2Cl)c2ccccc2n1CC(N)=O`, with inactive: 6.15%; and `CCCCC(=O)NC(NC(=S)N1CCOCC1)C(Cl)(Cl)Cl` (centres undefined), with inactive: 3.48%.
Then `C[C@H](CO)N1C[C@H](C)[C@@H](CN(C)S(=O)(=O)c2cn(C)cn2)Oc2ccc(NC(=O)C3CC3)cc2C1=O`, with inactive: 7%; and `O=C(Cn1cnc2ccccc2c1=O)Nc1ccc2c(c1)CCC2`, with inactive: -1.76%; and `Cc1noc(C)c1NC(=O)Nc1ccc2c(c1)C(=O)N([C@H](C)CO)C[C@H](C)[C@@H](CN(C)C(=O)NC1CCCCC1)O2`, with inactive: 5.97%.
For the compound `COc1ccc(C(=O)OCCc2sc[n+](CC(=O)c3ccccc3)c2C)cc1`, the activity change, negative = inhibition was inactive: 1.87%.
Regarding `Cc1nnsc1C(=O)NNS(=O)(=O)c1ccccc1`, the activity change, negative = inhibition was inactive: 0.407%.
Next, `CCN(C(=O)c1sc(N)c(C#N)c1C)C1CCCCC1`: inactive: 3.95%.
Next, `c1csc(-c2nc3nc4ccccc4nc3n2Cc2ccc3c(c2)OCO3)c1`: inactive: 7.51%.
Next, `Cc1ccc(NC(=O)CSc2cccc[n+]2[O-])c([N+](=O)[O-])c1`: inactive: 8.45%; `COc1ccc(N(Cc2cc3cccc(C)c3[nH]c2=O)S(C)(=O)=O)cc1`: inactive: -0.361%.
As for `Cc1noc(C)c1NC(=O)N(C)C[C@H]1Oc2ccc(NC(=O)C3CCCCC3)cc2C(=O)N([C@H](C)CO)C[C@@H]1C`, the activity change, negative = inhibition was inactive: -3.32%.
On to `Cc1ccc(-n2nnc3c(SCC(=O)NCC4CCCO4)ncnc32)cc1` (centres undefined), for which the activity change, negative = inhibition was inactive: 4.98%.
Next, `O=C(NCC(c1ccco1)N1CCN(c2ccc(F)cc2)CC1)OCc1ccccc1` (centres undefined): inactive: -0.0865%; `COC(=O)c1cc(C#N)c(OC)nc1C`: inactive: 5.1%.
Then `CC(C)(C)C1CCc2[nH]c3ccccc3c(=O)c2C1` (centres undefined), with inactive: -3.92%.
For the compound `O=S(=O)(Nc1ncnc2sc3c(c12)CCC3)c1ccc(Cl)s1`, the activity change, negative = inhibition was inactive: -2.42%.
Then `O=C(NCc1ccccn1)c1cn(Cc2ccccc2)nn1`, with inactive: -6.48%; and `COc1cc(C#N)c(N=C(SCC#N)N2CCOCC2)cc1OC`, with inactive: -3.54%.
Next, `CC(C)(C)OC(=O)CNC(=O)c1[nH]cnc1C(=O)N[C@@H](CCCCN)C(=O)OC(C)(C)C`: inactive: -4.28%; `CCCCN(C(=S)NC(=O)c1cc(OC)c(OC)c(OC)c1)c1c(N)n(Cc2ccccc2)c(=O)[nH]c1=O`: inactive: 1.06%.
Next, `COc1ccc(-c2nn3c(-c4ccco4)nnc3s2)cc1OC`: inactive: 13.3%; `Cc1cccc(OCc2nnc(SCC(=O)Nc3cccc(C(=O)N4CCOCC4)c3)o2)c1C`: inactive: -0.255%.
On to `CCN(C[C@H]1N[C@@](C)(C(=O)OC)[C@H]2C(=O)N(Cc3ccccc3)C(=O)[C@@H]12)C(=O)Nc1ccc(Cl)cc1`, for which the activity change, negative = inhibition was inactive: -3.7%.
Consider `C#CCOCCOCCOCCNc1nc(N2CCN(C(=O)[C@H](CCC(=O)O)n3cc([C@@H](N)[C@H](C)CC)nn3)CC2)nc(N2CCN(C(=O)[C@H](CCCCN)n3cc([C@@H](N)CC(N)=O)nn3)CC2)n1`, for which the activity change, negative = inhibition is inactive: 4.04%.
